Laboratory results reported in patent US20170275335 (published 2017).

Experiment: general procedure: Fmoc solid-phase peptide synthesis; 2-chlorotrityl (CTC) resin; HCTU/DIEA; DIPCDI/HOBt for Cys
Conditions: for crude HPLC purity: oxidative folding step; for crude HPLC purity / final HPLC purity: analytical HPLC, UV 220 nm; for step yield / final HPLC purity: purification step
[1] = trifluoroacetic acid salt (Example 21), TFA removed by further RP-HPLC (Example 22)

linaclotide
crude HPLC purity (trifluoroacetic acid salt (Example 21), TFA removed by further RP-HPLC (Example 22), h-0009): 59.92% | crude HPLC purity (trifluoroacetic acid salt (Example 21), TFA removed by further RP-HPLC (Example 22), h-0012): 57% | crude HPLC purity (trifluoroacetic acid salt (Example 21), TFA removed by further RP-HPLC (Example 22), h-0015): 46.02% | crude HPLC purity (trifluoroacetic acid salt (Example 21), TFA removed by further RP-HPLC (Example 22), h-0024): 67.5% | crude HPLC purity (trifluoroacetic acid salt (Example 21), TFA removed by further RP-HPLC (Example 22), h-0027): 69.56%% | crude HPLC purity (trifluoroacetic acid salt (Example 21), TFA removed by further RP-HPLC (Example 22), h-0030): 59.11% | crude HPLC purity (trifluoroacetic acid salt (Example 21), TFA removed by further RP-HPLC (Example 22), h-0033): 42.70% | crude HPLC purity (trifluoroacetic acid salt (Example 21), TFA removed by further RP-HPLC (Example 22), h-0036): 29.43% | crude HPLC purity (trifluoroacetic acid salt (Example 21), TFA removed by further RP-HPLC (Example 22), h-0043): 42.3% | crude HPLC purity (trifluoroacetic acid salt (Example 21), TFA removed by further RP-HPLC (Example 22), h-0046): 35-40% | crude HPLC purity (trifluoroacetic acid salt (Example 21), TFA removed by further RP-HPLC (Example 22), h-0049): 33.9% | crude HPLC purity (trifluoroacetic acid salt (Example 21), TFA removed by further RP-HPLC (Example 22), run 1): 63.38% | step yield (TFA salt): 50% | final HPLC purity (TFA salt): 99.07% | final HPLC purity [1]: 99.6% | step yield [1]: 49%
